According to the supplement of paper PMC10849652:
This is one part of the list. Residues, ends and D or L forms follow the SMILES beside them. *: point of attachment. Cbz = O=C(OCc1ccccc1)*

Chains of the proteins cited; added tags and fusions are not shown. Lines headed by an entry give the natural chain unless they say otherwise; changes in a name come on top.
UniProt P14406, whole entry, looked up: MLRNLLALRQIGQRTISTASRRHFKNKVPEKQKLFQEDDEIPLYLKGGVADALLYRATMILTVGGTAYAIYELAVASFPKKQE
UniProt P57737: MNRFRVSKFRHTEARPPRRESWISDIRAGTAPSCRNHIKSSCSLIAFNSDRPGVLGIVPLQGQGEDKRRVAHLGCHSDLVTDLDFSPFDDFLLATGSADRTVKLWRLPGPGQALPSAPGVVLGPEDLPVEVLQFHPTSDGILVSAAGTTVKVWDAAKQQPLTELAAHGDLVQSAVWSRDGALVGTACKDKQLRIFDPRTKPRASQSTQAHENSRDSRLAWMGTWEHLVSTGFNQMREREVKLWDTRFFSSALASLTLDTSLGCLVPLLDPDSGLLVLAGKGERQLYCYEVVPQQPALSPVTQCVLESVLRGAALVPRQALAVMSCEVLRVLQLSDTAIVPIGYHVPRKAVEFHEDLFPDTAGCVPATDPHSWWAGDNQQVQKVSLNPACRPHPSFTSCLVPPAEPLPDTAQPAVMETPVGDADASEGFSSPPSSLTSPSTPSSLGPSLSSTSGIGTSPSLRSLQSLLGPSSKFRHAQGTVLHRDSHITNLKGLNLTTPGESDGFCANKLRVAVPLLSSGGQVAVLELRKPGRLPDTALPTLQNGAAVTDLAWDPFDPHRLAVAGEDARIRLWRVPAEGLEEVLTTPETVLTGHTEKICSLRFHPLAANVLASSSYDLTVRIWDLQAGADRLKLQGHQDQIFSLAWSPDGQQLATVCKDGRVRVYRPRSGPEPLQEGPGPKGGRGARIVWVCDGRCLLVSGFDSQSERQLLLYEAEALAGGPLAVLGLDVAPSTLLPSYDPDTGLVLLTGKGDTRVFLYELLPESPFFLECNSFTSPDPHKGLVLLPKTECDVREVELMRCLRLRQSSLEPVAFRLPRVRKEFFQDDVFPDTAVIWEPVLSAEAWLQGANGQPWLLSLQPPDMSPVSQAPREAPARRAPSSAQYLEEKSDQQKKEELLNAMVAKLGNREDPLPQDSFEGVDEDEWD
UniProt A4D126: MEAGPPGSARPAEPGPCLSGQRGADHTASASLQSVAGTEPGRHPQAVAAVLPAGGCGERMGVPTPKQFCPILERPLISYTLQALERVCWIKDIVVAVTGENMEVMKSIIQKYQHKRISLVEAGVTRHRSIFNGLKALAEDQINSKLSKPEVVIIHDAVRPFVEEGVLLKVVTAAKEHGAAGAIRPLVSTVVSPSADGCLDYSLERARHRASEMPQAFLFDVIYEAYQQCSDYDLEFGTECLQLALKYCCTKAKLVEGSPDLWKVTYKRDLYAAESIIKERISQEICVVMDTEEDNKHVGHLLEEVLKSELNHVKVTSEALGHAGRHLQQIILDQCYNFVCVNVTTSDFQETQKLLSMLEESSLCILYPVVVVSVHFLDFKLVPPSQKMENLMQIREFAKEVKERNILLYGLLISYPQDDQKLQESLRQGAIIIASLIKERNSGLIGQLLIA
UniProt Q9P2I0: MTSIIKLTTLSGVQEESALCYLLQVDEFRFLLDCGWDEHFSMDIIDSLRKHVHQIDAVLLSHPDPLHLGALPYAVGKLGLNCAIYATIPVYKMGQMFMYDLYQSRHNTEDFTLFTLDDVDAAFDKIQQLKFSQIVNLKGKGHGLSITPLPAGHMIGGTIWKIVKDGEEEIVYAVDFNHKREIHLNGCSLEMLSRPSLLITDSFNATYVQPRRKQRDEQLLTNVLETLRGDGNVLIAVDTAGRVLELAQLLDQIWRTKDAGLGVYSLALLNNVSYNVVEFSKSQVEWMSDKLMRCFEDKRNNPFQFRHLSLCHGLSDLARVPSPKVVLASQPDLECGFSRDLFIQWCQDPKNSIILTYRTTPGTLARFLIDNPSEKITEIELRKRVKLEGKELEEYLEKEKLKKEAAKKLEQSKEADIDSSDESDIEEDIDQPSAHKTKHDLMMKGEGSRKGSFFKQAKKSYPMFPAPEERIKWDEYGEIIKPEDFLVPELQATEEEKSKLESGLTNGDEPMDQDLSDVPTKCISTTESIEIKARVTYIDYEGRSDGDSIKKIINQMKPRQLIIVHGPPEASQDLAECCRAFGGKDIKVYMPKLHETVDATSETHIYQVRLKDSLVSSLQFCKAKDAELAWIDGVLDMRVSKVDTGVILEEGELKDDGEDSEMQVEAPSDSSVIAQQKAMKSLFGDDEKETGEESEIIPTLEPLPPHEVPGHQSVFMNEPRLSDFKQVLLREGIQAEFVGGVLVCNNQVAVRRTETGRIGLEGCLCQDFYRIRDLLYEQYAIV
UniProt Q6UUV9: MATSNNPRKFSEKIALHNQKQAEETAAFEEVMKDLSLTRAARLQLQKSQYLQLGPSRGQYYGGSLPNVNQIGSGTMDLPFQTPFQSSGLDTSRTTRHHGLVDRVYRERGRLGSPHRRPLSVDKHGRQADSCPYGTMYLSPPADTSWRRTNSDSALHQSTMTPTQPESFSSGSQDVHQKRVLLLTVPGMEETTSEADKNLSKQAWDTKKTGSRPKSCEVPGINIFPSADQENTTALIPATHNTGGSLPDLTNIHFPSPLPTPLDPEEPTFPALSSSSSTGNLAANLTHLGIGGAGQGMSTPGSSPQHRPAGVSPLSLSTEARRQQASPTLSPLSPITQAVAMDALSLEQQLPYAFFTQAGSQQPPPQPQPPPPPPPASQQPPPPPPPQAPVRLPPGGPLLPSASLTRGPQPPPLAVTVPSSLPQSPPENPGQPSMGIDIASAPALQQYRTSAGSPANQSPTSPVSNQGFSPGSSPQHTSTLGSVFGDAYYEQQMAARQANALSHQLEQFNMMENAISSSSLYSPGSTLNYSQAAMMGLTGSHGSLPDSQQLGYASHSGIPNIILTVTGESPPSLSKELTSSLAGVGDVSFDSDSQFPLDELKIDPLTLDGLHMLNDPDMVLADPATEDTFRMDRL
UniProt Q92905, whole entry, looked up: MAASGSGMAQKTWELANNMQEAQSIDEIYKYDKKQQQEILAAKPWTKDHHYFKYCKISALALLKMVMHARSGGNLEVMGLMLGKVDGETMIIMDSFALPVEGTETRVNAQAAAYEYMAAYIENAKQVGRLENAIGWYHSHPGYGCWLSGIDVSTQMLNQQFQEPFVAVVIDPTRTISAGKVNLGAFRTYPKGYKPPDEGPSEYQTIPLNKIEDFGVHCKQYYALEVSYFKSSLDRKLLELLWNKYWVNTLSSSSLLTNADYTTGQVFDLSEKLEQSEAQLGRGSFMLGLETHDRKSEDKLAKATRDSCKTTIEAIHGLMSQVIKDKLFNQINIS
UniProt Q12887: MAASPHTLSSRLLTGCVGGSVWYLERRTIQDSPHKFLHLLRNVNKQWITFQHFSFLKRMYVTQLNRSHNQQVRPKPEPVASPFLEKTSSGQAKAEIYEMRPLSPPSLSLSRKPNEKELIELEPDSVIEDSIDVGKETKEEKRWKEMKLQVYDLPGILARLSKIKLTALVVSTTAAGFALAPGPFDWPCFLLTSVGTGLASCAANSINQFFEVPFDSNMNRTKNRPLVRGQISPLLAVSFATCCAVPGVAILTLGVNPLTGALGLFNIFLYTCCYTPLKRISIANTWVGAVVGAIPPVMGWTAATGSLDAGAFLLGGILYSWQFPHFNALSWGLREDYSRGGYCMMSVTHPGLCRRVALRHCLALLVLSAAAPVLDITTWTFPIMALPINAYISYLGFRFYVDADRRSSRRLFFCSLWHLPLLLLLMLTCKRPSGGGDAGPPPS
UniProt P48729: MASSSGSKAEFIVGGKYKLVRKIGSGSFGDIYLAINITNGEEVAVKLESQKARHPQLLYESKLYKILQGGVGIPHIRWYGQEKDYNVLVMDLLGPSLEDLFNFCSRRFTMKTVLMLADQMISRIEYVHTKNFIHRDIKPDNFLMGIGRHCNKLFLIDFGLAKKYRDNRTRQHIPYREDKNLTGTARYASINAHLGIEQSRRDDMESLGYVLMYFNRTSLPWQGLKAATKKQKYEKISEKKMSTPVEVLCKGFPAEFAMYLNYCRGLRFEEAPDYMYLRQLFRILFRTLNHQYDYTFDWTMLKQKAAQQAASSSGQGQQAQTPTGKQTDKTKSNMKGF
UniProt O14548: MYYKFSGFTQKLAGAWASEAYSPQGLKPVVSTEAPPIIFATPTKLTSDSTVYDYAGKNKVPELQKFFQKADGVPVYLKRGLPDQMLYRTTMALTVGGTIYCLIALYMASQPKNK
UniProt Q9UBF2: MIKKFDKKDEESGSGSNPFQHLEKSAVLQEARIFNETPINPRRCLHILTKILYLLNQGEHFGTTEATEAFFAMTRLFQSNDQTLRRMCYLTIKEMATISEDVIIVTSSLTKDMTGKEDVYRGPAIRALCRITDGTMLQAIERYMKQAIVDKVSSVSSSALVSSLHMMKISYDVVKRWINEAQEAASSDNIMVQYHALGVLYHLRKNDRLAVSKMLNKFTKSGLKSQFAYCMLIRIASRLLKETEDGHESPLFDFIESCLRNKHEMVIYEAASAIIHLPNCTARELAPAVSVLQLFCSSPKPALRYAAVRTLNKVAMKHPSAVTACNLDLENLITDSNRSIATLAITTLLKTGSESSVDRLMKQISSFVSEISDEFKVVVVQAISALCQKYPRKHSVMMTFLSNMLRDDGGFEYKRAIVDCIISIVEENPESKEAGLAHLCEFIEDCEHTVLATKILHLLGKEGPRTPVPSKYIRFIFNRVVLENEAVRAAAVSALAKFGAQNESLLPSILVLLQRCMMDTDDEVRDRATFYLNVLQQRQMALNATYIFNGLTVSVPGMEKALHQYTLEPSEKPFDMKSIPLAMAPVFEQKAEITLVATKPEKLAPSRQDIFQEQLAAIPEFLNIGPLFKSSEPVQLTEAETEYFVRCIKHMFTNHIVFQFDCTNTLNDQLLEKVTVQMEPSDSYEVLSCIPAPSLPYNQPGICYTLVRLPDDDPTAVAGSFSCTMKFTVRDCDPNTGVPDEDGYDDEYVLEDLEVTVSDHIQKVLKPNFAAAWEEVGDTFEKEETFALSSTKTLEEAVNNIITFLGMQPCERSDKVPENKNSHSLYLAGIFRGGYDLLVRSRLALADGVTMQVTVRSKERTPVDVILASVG
UniProt Q9NZJ6: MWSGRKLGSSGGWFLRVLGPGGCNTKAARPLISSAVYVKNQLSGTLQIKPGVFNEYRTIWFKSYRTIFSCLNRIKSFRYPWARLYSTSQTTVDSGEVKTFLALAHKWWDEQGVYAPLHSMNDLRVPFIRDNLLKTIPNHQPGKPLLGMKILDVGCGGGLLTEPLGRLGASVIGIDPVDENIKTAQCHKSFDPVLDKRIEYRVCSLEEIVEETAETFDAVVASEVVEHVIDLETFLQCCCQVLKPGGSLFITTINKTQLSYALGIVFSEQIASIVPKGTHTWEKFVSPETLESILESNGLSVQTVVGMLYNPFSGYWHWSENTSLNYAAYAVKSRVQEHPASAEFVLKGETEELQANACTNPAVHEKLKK
UniProt P09669, whole entry, looked up: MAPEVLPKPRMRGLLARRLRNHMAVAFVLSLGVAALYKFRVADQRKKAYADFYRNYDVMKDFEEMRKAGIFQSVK
UniProt P16220: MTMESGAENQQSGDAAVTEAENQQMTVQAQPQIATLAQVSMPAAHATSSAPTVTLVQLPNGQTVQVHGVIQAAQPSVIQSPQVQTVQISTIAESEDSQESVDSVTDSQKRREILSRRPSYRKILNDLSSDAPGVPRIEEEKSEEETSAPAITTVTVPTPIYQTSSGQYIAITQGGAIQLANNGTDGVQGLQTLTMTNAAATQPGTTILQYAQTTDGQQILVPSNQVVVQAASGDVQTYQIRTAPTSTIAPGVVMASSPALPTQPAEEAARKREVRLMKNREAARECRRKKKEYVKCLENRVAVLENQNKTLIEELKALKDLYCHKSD
UniProt O95825: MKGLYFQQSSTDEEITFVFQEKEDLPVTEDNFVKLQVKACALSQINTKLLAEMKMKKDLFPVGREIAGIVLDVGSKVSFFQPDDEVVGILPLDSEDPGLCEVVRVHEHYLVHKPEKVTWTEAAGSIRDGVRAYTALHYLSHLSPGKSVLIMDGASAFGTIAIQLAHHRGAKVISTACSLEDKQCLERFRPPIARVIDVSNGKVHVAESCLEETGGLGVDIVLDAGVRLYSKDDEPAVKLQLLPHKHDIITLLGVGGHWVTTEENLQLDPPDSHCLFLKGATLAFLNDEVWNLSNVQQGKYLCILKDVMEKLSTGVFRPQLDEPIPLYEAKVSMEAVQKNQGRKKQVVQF
UniProt Q14019: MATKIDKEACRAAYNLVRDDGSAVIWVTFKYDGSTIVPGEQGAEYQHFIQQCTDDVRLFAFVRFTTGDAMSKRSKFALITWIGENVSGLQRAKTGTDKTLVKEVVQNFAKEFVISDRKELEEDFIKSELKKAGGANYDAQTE
UniProt Q7L5N1: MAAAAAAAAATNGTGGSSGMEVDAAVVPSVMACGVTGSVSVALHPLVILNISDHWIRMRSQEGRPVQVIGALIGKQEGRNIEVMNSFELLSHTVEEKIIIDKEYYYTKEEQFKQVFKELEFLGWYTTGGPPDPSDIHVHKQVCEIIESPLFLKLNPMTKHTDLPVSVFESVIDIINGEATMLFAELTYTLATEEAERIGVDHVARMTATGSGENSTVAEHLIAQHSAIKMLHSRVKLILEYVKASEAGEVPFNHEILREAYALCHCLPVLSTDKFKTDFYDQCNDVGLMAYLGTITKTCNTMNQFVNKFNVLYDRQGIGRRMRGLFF

Experiments:
Test in all cases: log2 fold change, soluble protein after heating vs DMSO (PISA); higher = thermal stabilisation; K562 cells, 10 uM, 30 min; active = over 0.2 and 3.5 SD of the protein, either way, in both replicates (recomputed)
IRAK-1-4 Inhibitor I = compound: C1COCCN1CCN2C3=CC=CC=C3N=C2NC(=O)C4=CC(=CC=C4)[N+](=O)[O-] [IRAK-1-4 Inhibitor I]
In short: (§1)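 K562 cells (2×10^6 cells/mL) were treated with 10 μM compound for 30 min, and aliquots were heated for 3 min over 48°C-58°C. Pooled aliquots were extracted in PBS with 0.5% NP-40 at 4°C, and the supernatant after 21,000xg for 90 min was measured by TMTpro 16plex LC-MS/MS with channel sums equalised. Reported thermal stability, relative to control samples and from duplicates, is a log2 fold change.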

ibrutinib = compound: C=CC(=O)N1CCC[C@@H](n2nc(-c3ccc(Oc4ccccc4)cc3)c3c(N)ncnc32)C1 [ibrutinib]
In short: as §1

[1] = compound: CC(=O)c1cnc2ccc(-c3cc(Cl)c(O)c(Cl)c3)nc2c1N[C@H]1CC[C@H](CN(C)C)CC1
In short: as §1

ralimetinib = compound: CC(C)(C)Cn1c(N)nc2ccc(-c3[nH]c(C(C)(C)C)nc3-c3ccc(F)cc3)nc21 [ralimetinib]
In short: as §1

[2] = compound: CC(C)(O)CC(=O)NCCn1ccc2ncnc(Nc3ccc(Oc4cccc(C(F)(F)F)c4)c(Cl)c3)c21
In short: as §1

[3] = compound: CC(C)C1=C2N=C(C=C(N2N=C1)NCC3=CC=CC=C3)NCCCCCCN
In short: as §1

[4] = compound: CC(C)C[C@@H](C=O)NC(=O)[C@H](CC(C)C)NC(=O)[C@H](CC(C)C)NC(=O)OCc1ccccc1
In short: as §1

pinometostat = compound: CC(C)N(C[C@H]1O[C@@H](n2cnc3c(N)ncnc32)[C@H](O)[C@@H]1O)[C@H]1C[C@@H](CCc2nc3cc(C(C)(C)C)ccc3[nH]2)C1 [pinometostat]
In short: as §1

[5] = compound: CC1=C(C(CC(=O)N1)C2=CC=C(C=C2)C(F)(F)F)C(=O)NC3=C(C=C4C(=C3)C=NN4)F
In short: as §1

[6] = compound: CC1=C(C2=C(C=C1)C(=O)C3=CC=CC=C3N2CCCN)C
In short: as §1

Measured: log2 fold change

COX7A2 (UniProt P14406)
inactive: IRAK-1-4 Inhibitor I 0.018 | ibrutinib 0.034 | [1] -0.031 | ralimetinib -0.094 | [2] -0.015 | [3] -0.047 | [4] -0.02 | pinometostat 0.057 | [5] -0.011 | [6] 0.095

CORO7 isoform 3 (UniProt P57737)
inactive: IRAK-1-4 Inhibitor I 0.014 | ibrutinib -0.009 | [1] 0.008 | ralimetinib 0.057 | [2] -0.009 | [3] -0.168 | [4] -0.008 | pinometostat -0.038 | [5] 0.051 | [6] 0.018

COQ6 (UniProt Q9Y2Z9)
inactive: IRAK-1-4 Inhibitor I 0 | ibrutinib 0.089 | [1] 0.013 | ralimetinib 0.111 | [2] 0.001 | [3] -0.057 | [4] -0.089 | pinometostat -0.045 | [5] -0.033 | [6] 0.047

CRPPA (UniProt A4D126)
inactive: IRAK-1-4 Inhibitor I 0.019 | ibrutinib 0.027 | [1] -0.008 | ralimetinib -0.076 | [2] -0.013 | [3] 0.079 | [4] -0.043 | pinometostat -0.009 | [5] 0.012 | [6] -0.002

CORO1C isoform 3 (UniProt Q9ULV4)
inactive: IRAK-1-4 Inhibitor I -0.005 | ibrutinib -0.026 | [1] 0.034 | ralimetinib 0.012 | [2] 0.046 | [3] 0.114 | [4] 0.011 | pinometostat -0.036 | [5] -0.064 | [6] 0.003

2 entries drawn at random from those above:
CORO7 isoform 3 (UniProt P57737)
inactive: IRAK-1-4 Inhibitor I 0.014 | ibrutinib -0.009 | [1] 0.008 | ralimetinib 0.057 | [2] -0.009 | [3] -0.168 | [4] -0.008 | pinometostat -0.038 | [5] 0.051 | [6] 0.018

COX7A2 (UniProt P14406)
inactive: IRAK-1-4 Inhibitor I 0.018 | ibrutinib 0.034 | [1] -0.031 | ralimetinib -0.094 | [2] -0.015 | [3] -0.047 | [4] -0.02 | pinometostat 0.057 | [5] -0.011 | [6] 0.095

Continued:

CSNK1G3 (UniProt Q9Y6M4)
inactive: IRAK-1-4 Inhibitor I -0.183 | ibrutinib -0.051 | [1] 0.062 | ralimetinib 0.137 | [2] -0.001 | [3] -0.239 | [4] 0.073 | pinometostat 0.023 | [5] 0.026 | [6] 0.066

CPSF2 (UniProt Q9P2I0)
inactive: IRAK-1-4 Inhibitor I -0.066 | ibrutinib -0.071 | [1] 0.039 | ralimetinib 0.028 | [2] -0.098 | [3] -0.047 | [4] 0.159 | pinometostat 0.131 | [5] 0.033 | [6] -0.039

CPLX1 (UniProt O14810)
inactive: IRAK-1-4 Inhibitor I 0.041 | ibrutinib 0.159 | [1] 0.132 | ralimetinib 0.041 | [2] 0.091 | [3] 0.002 | [4] 0.017 | pinometostat -0.069

CRKL (UniProt P46109)
active: [1] -1.24
inactive: IRAK-1-4 Inhibitor I 0.035 | ibrutinib -0.102 | ralimetinib -0.054 | [2] -0.004 | [3] 0.042 | [4] 0.057 | pinometostat -0.022 | [6] -0.008

CPNE3 (UniProt O75131)
inactive: IRAK-1-4 Inhibitor I 0.037 | ibrutinib 0.009 | [1] 0.023 | ralimetinib 0.004 | [2] 0.004 | [3] 0.075 | [4] -0.039 | pinometostat -0.051 | [5] 0.006 | [6] -0.048

CPED1 (UniProt A4D0V7)
inactive: IRAK-1-4 Inhibitor I -0.134 | ibrutinib -0.048 | [1] -0.236 | ralimetinib -0.01 | [2] -0.045 | [3] 0.008 | [4] 0.142 | pinometostat 0.076 | [5] 0.125 | [6] -0.122

CREG1 (UniProt O75629)
inactive: IRAK-1-4 Inhibitor I 0.051 | ibrutinib 0.028 | [1] -0.001 | ralimetinib -0.001 | [2] 0.034 | [3] -0.019 | [4] 0.032 | pinometostat 0.002 | [5] -0.017 | [6] 0.096

CRTC1 isoform 2 (UniProt Q6UUV9)
inactive: IRAK-1-4 Inhibitor I 0.026 | ibrutinib -0.061 | [1] -0.023 | ralimetinib 0.025 | [2] -0.042 | [3] 0.112 | [4] -0.041 | pinometostat -0.024 | [6] 0.072

COPS5 (UniProt Q92905)
inactive: IRAK-1-4 Inhibitor I 0.036 | ibrutinib -0.021 | [1] 0.007 | ralimetinib -0.043 | [2] -0.089 | [3] 0.024 | [4] -0.041 | pinometostat -0.036 | [5] -0.022 | [6] 0.002

COX10 (UniProt Q12887)
inactive: IRAK-1-4 Inhibitor I 0.01 | ibrutinib 0.035 | [1] -0.066 | ralimetinib -0.073 | [2] 0.108 | [3] -0.225 | [4] 0.163 | pinometostat 0.02 | [5] -0.122 | [6] 0.011

CSNK1A1 (UniProt P48729)
inactive: IRAK-1-4 Inhibitor I -0.016 | ibrutinib 0.015 | [1] -0.053 | ralimetinib 0.026 | [2] -0.041 | [4] 0.145 | pinometostat 0.112 | [6] 0.028
active: [3] -0.25

COX7A2L (UniProt O14548)
inactive: IRAK-1-4 Inhibitor I 0.005 | ibrutinib -0.016 | [1] -0.021 | ralimetinib -0.049 | [2] -0.01 | [3] -0.055 | [4] 0.029 | pinometostat -0.017 | [5] 0.008 | [6] 0.06

COPG2 (UniProt Q9UBF2)
inactive: IRAK-1-4 Inhibitor I -0.002 | ibrutinib -0.015 | [1] -0.015 | ralimetinib -0.001 | [2] 0 | [3] 0.088 | [4] -0.023 | pinometostat -0.008 | [5] -0.022 | [6] 0.035

COQ3 (UniProt Q9NZJ6)
inactive: IRAK-1-4 Inhibitor I 0.009 | ibrutinib 0.055 | [1] 0 | ralimetinib -0.008 | [2] -0.108 | [3] 0.071 | [4] 0.049 | pinometostat 0.009 | [5] -0.049 | [6] 0.1

COX6C (UniProt P09669)
inactive: IRAK-1-4 Inhibitor I -0.031 | ibrutinib -0.098 | [1] 0.047 | ralimetinib -0.089 | [2] -0.052 | [3] -0.02 | [4] -0.053 | pinometostat -0.122 | [5] 0.004 | [6] 0.022

CREB1 (UniProt P16220)
inactive: IRAK-1-4 Inhibitor I 0.024 | ibrutinib 0 | [1] -0.08 | ralimetinib -0.036 | [2] 0.053 | [3] 0.008 | [4] 0.009 | pinometostat -0.026 | [5] -0.006 | [6] 0.098

COMMD2 (UniProt Q86X83)
inactive: IRAK-1-4 Inhibitor I -0.009 | ibrutinib -0.038 | [1] -0.119 | ralimetinib -0.023 | [2] -0.179 | [3] -0.271 | [4] 0.007 | pinometostat 0.037 | [6] 0.01

CRYZL1 (UniProt O95825)
inactive: IRAK-1-4 Inhibitor I 0.057 | ibrutinib 0.01 | [1] 0.033 | ralimetinib -0.028 | [2] 0.001 | [3] 0.042 | [4] 0.021 | pinometostat -0.046 | [5] 0.007 | [6] -0.002

COTL1 (UniProt Q14019)
inactive: IRAK-1-4 Inhibitor I -0.016 | ibrutinib -0.063 | [1] 0.009 | ralimetinib -0.026 | [2] 0 | [3] 0.015 | [4] -0.052 | pinometostat -0.076 | [5] -0.012 | [6] -0.025

COPS6 (UniProt Q7L5N1)
inactive: IRAK-1-4 Inhibitor I 0.03 | ibrutinib 0.015 | [1] 0.007 | ralimetinib 0.031 | [2] -0.019 | [3] 0.009 | [4] -0.016 | pinometostat -0.049 | [5] 0.051 | [6] 0.003

CREBBP (UniProt Q92793)
inactive: IRAK-1-4 Inhibitor I -0.007 | ibrutinib -0.011 | [1] -0.064 | ralimetinib -0.022 | [2] -0.026 | [3] 0.031 | [4] 0.023 | pinometostat 0.001 | [5] -0.013 | [6] 0.043

COQ8A (UniProt Q8NI60)
inactive: IRAK-1-4 Inhibitor I 0.091 | ibrutinib 0.096 | [1] 0.116 | ralimetinib -0.019 | [2] -0.018 | [3] -0.016 | [4] -0.009 | pinometostat 0.021 | [5] -0.002 | [6] 0.022

COPS8 (UniProt Q99627)
inactive: IRAK-1-4 Inhibitor I -0.006 | ibrutinib 0.039 | [1] -0.011 | ralimetinib -0.042 | [2] 0.031 | [3] 0.043 | [4] 0.027 | pinometostat -0.021 | [6] 0.13

CPSF1 (UniProt Q10570)
inactive: IRAK-1-4 Inhibitor I -0.006 | ibrutinib -0.007 | [1] 0.064 | ralimetinib 0 | [2] 0.036 | [3] -0.009 | [4] 0.075 | pinometostat 0.142 | [6] -0.093

CREB3L2 (UniProt Q70SY1)
inactive: IRAK-1-4 Inhibitor I 0.055 | ibrutinib 0.168 | [1] -0.108 | ralimetinib -0.01 | [2] -0.08 | [3] 0.322 | [4] 0.607 | pinometostat -0.193 | [6] 0.074
